Assay results taken from the supplement of paper PMC10849652.
The list shows a part of the results.

The chains behind the UniProt entries cited, without tags or fusion partners. Where a name states a change or a piece, a line headed by the entry shows the natural chain unless it says otherwise.
UniProt Q9HA47: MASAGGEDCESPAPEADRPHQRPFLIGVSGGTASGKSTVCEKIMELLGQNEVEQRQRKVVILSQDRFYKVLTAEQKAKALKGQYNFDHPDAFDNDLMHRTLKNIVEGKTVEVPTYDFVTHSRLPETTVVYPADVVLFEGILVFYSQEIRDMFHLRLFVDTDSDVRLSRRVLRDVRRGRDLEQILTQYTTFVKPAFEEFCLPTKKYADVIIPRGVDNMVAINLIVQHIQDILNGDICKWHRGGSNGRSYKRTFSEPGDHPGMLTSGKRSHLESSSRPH
UniProt Q96S82: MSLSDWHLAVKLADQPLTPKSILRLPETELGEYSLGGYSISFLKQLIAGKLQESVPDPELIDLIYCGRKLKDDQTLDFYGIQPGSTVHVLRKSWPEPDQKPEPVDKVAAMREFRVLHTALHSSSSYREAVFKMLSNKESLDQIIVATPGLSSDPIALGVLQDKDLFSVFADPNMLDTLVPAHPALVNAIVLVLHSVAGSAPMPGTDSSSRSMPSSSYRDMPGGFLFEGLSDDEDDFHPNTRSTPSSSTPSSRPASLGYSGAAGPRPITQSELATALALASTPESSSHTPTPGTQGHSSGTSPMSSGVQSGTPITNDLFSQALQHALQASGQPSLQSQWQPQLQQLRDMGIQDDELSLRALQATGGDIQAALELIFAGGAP
UniProt Q9UHD9, whole entry, looked up: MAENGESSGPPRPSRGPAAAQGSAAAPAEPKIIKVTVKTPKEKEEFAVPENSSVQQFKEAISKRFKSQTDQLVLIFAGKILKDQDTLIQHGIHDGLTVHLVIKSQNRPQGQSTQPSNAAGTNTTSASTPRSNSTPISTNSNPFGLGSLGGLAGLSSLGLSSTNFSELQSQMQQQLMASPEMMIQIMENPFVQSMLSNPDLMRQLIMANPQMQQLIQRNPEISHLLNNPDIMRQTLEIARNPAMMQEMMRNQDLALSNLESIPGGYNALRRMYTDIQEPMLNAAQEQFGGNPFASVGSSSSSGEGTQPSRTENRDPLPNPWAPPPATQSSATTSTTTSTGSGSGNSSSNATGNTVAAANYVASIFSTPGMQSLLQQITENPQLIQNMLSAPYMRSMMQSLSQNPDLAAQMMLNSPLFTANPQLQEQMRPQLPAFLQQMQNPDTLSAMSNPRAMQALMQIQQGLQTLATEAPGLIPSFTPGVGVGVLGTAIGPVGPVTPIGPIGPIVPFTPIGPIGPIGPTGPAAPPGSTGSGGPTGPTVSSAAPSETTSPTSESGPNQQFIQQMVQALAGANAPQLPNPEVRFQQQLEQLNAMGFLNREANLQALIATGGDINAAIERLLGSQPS
UniProt P45974: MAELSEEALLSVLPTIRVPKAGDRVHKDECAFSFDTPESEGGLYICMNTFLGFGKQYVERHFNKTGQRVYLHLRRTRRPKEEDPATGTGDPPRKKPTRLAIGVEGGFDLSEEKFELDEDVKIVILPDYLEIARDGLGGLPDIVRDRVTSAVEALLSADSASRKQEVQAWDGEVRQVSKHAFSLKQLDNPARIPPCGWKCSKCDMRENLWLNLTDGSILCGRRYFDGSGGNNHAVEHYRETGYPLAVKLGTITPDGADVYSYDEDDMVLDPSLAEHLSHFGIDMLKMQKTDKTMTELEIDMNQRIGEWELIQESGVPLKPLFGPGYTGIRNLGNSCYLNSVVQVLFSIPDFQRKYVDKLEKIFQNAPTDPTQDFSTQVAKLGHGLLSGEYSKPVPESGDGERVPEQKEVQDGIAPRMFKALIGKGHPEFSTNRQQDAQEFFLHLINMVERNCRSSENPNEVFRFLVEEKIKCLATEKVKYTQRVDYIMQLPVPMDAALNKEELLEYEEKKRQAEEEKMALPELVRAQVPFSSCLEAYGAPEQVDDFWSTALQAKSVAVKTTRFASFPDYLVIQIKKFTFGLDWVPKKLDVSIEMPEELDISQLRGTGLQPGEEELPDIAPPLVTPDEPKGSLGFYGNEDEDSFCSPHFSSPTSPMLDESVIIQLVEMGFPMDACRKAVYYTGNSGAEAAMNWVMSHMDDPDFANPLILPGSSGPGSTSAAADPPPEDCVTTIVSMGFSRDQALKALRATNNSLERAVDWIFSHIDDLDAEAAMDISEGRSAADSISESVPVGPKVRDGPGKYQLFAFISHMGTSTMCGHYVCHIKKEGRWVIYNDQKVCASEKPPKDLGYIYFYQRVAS
UniProt Q04323: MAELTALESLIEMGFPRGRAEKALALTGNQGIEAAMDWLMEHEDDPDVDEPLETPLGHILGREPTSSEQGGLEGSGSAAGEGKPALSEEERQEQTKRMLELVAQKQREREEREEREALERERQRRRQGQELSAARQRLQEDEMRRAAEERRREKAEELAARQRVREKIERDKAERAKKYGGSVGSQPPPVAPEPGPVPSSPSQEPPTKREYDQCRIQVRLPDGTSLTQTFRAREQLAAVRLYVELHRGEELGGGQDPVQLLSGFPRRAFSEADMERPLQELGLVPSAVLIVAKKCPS
UniProt Q92900: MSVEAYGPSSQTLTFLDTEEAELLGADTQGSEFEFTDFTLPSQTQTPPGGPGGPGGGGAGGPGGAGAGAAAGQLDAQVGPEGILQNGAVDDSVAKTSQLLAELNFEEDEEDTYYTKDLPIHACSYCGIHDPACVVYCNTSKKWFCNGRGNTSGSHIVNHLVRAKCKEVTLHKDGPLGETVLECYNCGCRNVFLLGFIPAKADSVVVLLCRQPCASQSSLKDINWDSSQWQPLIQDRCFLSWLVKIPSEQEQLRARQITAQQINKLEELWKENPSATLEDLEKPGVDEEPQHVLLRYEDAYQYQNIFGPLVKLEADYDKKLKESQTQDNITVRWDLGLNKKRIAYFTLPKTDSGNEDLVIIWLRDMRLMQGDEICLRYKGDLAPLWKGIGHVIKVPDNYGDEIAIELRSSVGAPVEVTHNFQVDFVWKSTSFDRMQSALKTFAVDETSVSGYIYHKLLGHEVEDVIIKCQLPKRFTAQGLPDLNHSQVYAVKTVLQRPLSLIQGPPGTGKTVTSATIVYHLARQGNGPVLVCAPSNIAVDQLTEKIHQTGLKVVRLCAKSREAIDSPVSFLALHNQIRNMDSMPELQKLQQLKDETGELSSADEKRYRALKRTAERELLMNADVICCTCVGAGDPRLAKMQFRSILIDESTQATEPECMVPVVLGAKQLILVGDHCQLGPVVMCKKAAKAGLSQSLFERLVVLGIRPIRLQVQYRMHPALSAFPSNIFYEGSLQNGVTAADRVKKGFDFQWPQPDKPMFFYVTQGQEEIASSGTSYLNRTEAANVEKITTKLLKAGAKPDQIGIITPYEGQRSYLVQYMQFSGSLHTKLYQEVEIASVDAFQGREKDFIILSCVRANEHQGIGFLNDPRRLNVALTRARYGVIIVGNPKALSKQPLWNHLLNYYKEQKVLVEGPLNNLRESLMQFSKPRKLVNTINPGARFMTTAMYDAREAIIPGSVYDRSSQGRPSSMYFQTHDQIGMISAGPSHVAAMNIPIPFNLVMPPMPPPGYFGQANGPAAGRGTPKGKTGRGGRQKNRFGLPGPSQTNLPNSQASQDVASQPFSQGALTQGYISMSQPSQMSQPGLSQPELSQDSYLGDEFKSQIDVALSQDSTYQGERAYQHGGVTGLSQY
UniProt Q9P0L0: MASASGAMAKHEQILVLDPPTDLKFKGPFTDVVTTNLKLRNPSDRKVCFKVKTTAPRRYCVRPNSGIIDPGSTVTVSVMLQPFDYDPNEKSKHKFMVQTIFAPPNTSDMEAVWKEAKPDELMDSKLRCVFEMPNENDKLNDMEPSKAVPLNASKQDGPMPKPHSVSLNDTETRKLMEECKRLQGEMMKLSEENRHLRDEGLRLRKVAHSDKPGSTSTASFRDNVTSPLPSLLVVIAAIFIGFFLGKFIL
UniProt P26640: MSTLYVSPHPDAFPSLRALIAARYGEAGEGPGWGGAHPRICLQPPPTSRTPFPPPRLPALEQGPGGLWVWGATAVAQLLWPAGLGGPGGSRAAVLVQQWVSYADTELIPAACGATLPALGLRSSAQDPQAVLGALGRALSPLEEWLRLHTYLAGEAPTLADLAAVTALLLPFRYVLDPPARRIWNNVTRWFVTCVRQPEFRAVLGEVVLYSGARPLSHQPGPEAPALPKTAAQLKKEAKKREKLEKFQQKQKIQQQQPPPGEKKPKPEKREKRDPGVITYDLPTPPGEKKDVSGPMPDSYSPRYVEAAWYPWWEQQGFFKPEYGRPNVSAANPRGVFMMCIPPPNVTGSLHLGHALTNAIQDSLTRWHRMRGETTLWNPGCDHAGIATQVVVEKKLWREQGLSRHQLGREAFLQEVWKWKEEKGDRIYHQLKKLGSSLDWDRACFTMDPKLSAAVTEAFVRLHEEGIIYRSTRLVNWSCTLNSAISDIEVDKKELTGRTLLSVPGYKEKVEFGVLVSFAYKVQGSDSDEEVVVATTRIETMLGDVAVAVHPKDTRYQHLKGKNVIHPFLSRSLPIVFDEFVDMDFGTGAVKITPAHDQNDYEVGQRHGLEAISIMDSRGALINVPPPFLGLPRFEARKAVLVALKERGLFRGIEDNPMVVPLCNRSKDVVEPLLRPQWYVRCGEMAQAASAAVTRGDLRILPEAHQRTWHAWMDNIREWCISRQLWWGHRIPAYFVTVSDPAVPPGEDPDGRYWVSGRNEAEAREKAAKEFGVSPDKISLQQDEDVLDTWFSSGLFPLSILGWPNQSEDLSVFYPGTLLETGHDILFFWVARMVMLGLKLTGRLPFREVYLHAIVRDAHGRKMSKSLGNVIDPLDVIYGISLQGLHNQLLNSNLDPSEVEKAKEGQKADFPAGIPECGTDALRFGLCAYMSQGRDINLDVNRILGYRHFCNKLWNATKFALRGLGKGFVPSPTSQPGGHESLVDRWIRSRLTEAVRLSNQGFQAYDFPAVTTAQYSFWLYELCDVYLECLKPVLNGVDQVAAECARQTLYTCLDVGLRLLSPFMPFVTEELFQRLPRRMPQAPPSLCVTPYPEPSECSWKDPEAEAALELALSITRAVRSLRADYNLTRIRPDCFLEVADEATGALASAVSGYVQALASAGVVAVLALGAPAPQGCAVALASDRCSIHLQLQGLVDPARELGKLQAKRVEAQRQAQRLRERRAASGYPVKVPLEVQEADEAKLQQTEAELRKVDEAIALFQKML
UniProt Q8TAA9: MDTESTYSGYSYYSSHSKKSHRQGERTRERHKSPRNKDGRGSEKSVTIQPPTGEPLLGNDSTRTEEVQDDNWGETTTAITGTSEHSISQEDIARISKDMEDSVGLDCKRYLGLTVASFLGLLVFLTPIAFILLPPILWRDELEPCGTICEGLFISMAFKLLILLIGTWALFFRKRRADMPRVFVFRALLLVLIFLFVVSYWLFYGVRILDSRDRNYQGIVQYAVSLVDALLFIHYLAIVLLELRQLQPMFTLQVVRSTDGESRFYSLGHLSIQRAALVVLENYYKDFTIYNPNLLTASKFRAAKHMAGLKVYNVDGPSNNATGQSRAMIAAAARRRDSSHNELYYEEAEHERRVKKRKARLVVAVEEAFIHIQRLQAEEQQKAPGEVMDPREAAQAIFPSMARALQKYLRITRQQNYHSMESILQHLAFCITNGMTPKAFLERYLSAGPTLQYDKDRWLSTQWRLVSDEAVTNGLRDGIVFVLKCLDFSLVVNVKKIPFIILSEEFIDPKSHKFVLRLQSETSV
UniProt Q9H3U1: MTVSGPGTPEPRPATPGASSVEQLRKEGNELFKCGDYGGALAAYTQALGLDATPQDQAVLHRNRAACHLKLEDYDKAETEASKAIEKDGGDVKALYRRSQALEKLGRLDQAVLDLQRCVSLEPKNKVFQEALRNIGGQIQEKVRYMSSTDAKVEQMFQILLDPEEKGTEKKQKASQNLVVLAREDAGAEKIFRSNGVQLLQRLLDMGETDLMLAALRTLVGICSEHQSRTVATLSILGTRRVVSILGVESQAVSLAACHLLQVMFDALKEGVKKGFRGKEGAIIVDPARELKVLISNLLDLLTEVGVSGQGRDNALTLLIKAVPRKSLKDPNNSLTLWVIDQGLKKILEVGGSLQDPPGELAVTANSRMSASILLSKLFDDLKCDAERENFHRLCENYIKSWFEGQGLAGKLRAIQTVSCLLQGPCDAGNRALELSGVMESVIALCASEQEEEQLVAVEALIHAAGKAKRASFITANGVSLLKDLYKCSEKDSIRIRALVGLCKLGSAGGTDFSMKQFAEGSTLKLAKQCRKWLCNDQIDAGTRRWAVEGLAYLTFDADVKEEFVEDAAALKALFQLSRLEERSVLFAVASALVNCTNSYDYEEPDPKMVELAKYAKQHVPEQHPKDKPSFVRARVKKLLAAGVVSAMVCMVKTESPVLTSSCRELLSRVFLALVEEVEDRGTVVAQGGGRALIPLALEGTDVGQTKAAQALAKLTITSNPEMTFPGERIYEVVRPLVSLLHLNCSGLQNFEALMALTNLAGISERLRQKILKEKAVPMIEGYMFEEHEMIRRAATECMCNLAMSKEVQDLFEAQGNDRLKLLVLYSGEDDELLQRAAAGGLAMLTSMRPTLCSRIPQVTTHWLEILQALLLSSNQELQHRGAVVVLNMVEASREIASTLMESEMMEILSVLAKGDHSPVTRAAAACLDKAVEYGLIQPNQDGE

How the values were obtained:
Assay in all cases: log2 fold change, soluble protein after heating vs DMSO (PISA); higher = thermal stabilisation; K562 cells, 10 uM, 30 min; active = over 0.2 and 3.5 SD of the protein, either way, in both replicates (recomputed)
[1] = compound: COC1=CC=C(C=C1)CN2C=CC3=C2C=C(C=C3)C(=O)NO
Method in brief: (§1)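 K562 cells at 2×10^6 cells/mL were given 10 μM compound for 30 min. Aliquots then went through 3 min of heating across 48°C-58°C, were pooled, and were extracted in PBS with 0.5% NP-40 at 4°C, and the supernatant after 21,000xg for 90 min was quantified by TMTpro 16plex LC-MS/MS with channel sums equalised. Thermal stability relative to control samples, from duplicates, is given as log2 fold change.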

[2] = compound: CON(C)C(=O)N1N=C(c2cc(F)ccc2F)S[C@@]1(CCCN)c1ccccc1 [filanesib]
Method in brief: as §1

[3] = compound: CO[C@H]1C[C@@H]2CC[C@@H](C)[C@@](O)(O2)C(=O)C(=O)N2CCCC[C@H]2C(=O)O[C@H]([C@H](C)C[C@@H]2CC[C@H](n3cnnn3)[C@H](OC)C2)CC(=O)[C@H](C)/C=C(\C)[C@@H](O)[C@@H](OC)C(=O)[C@H](C)C[C@H](C)/C=C/C=C/C=C/1C [zotarolimus]
Method in brief: as §1

[4] = compound: COc1cc(C(=O)O)ccc1NC(=O)[C@@H]1N[C@@H](CC(C)(C)C)[C@](C#N)(c2ccc(Cl)cc2F)[C@H]1c1cccc(Cl)c1F [idasanutlin]
Method in brief: as §1

[5] = compound: COc1cc(Nc2ncc3c(n2)-c2ccc(Cl)cc2C(c2c(F)cccc2OC)=NC3)ccc1C(=O)O [alisertib]
Method in brief: as §1

[6] = compound: COc1cc2nc(-c3cc(F)ccc3O)nc(N[C@@H]3CNC[C@H]3C(C)(C)O)c2cc1OC
Method in brief: as §1

[7] = compound: COc1cc2ncnc(Nc3ccc(F)c(Cl)c3)c2cc1OCCCN1CCOCC1 [gefitinib]
Method in brief: as §1

[8] = compound: COc1cccc2cc(-c3nc([C@H]4CC[C@H](C(=O)O)CC4)n4ncnc(N)c34)[nH]c12
Method in brief: as §1

[9] = compound: CS(=O)(=O)CCNCc1ccc(-c2ccc3ncnc(Nc4ccc(OCc5cccc(F)c5)c(Cl)c4)c3c2)o1 [lapatinib]
Method in brief: as §1

[10] = compound: CS(=O)(=O)N1CCN(Cc2cc3nc(-c4cccc5[nH]ncc45)nc(N4CCOCC4)c3s2)CC1 [pictilisib]
Method in brief: as §1

[11] = compound: CS(=O)(=O)c1ccc(-c2cnc(N)c(C(=O)Nc3ccccc3)n2)cc1
Method in brief: as §1

[12] = compound: C[C@@H](Oc1cc(-c2cnn(C3CCNCC3)c2)cnc1N)c1c(Cl)ccc(F)c1Cl [crizotinib]
Method in brief: as §1

[13] = compound: C[C@@H]1COCCN1C2=NC(=NC(=C2)C3(CC3)S(=O)(=O)C)C4=C5C=CNC5=CC=C4
Method in brief: as §1

[14] = compound: C[C@H](C1=CC=C(C=C1)C(=O)NC2=C3C=CNC3=NC=C2)N
Method in brief: as §1

[15] = compound: C[C@H](Nc1ncnc2nc[nH]c12)c1cc2cccc(Cl)c2c(=O)n1-c1ccccc1 [duvelisib]
Method in brief: as §1

[16] = compound: Cc1cc(Nc2cc(CN3CCOCC3)c3nc(C)c(Cc4ccc(Cl)cc4F)n3n2)n[nH]1 [gandotinib]
Method in brief: as §1

[17] = compound: Cc1cc(Nc2cc(N3CCN(C)CC3)nc(Sc3ccc(NC(=O)C4CC4)cc3)n2)n[nH]1 [tozasertib]
Method in brief: as §1

[18] = compound: Cc1cc(SCc2sc(-c3ccc(C(F)(F)F)cc3)nc2C)ccc1OCC(=O)O
Method in brief: as §1

[19] = compound: Cc1ccc(-n2nc(C(C)(C)C)cc2NC(=O)Nc2ccc(OCCN3CCOCC3)c3ccccc23)cc1 [doramapimod]
Method in brief: as §1

[20] = compound: Cc1ccc(C(=O)N(CCCN)[C@@H](c2nc3cc(Cl)ccc3c(=O)n2Cc2ccccc2)C(C)C)cc1 [ispinesib]
Method in brief: as §1

Measured: log2 fold change

UCK1 (UniProt Q9HA47)
inactive: [1] -0.012 | [2] -0.076 | [3] -0.015 | [4] -0.03 | [5] -0.029 | [6] -0.042 | [7] 0.005 | [8] -0.039 | [9] -0.043 | [10] -0.051 | [11] 0.025 | [12] 0.007 | [13] -0.237 | [14] -0.09 | [15] 0.05 | [16] -0.051 | [17] -0.006 | [18] -0.053 | [19] -0.001 | [20] 0.062

UBL7 (UniProt Q96S82)
inactive: [1] 0.012 | [2] 0.114 | [3] 0.047 | [4] 0 | [5] -0.048 | [6] -0.043 | [7] -0.027 | [8] 0.036 | [9] 0.016 | [10] -0.127 | [11] 0.004 | [12] -0.008 | [13] 0.24 | [14] -0.087 | [15] 0.098 | [16] 0.11 | [17] 0.001 | [18] 0.114 | [19] 0.036 | [20] -0.069

UBL5 (UniProt Q9BZL1)
inactive: [1] -0.042 | [2] 0.02 | [3] 0.046 | [4] 0.03 | [5] -0.069 | [6] 0.067 | [7] 0.046 | [8] -0.007 | [9] -0.002 | [10] 0.04 | [11] 0.042 | [12] -0.041 | [13] 0.022 | [14] -0.066 | [15] 0.043 | [16] -0.262 | [17] 0.039 | [18] 0.028 | [19] 0.025 | [20] 0.048

Taken from the results shown (2 entries):
UBL7 (UniProt Q96S82)
inactive: [1] 0.012 | [2] 0.114 | [3] 0.047 | [4] 0 | [5] -0.048 | [6] -0.043 | [7] -0.027 | [8] 0.036 | [9] 0.016 | [10] -0.127 | [11] 0.004 | [12] -0.008 | [13] 0.24 | [14] -0.087 | [15] 0.098 | [16] 0.11 | [17] 0.001 | [18] 0.114 | [19] 0.036 | [20] -0.069

UBL5 (UniProt Q9BZL1)
inactive: [1] -0.042 | [2] 0.02 | [3] 0.046 | [4] 0.03 | [5] -0.069 | [6] 0.067 | [7] 0.046 | [8] -0.007 | [9] -0.002 | [10] 0.04 | [11] 0.042 | [12] -0.041 | [13] 0.022 | [14] -0.066 | [15] 0.043 | [16] -0.262 | [17] 0.039 | [18] 0.028 | [19] 0.025 | [20] 0.048

Following part

UBQLN2 (UniProt Q9UHD9)
inactive: [1] 0.009 | [2] -0.078 | [3] 0.039 | [4] -0.043 | [5] -0.065 | [6] -0.081 | [7] 0.013 | [8] 0.084 | [9] 0.073 | [10] -0.104 | [11] -0.02 | [12] 0.061 | [13] 0.127 | [14] -0.109 | [15] -0.025 | [16] 0.012 | [17] 0.088 | [18] -0.032 | [19] 0.003 | [20] 0.053

USF2 (UniProt Q15853)
inactive: [1] 0.101 | [2] -0.042 | [3] 0.014 | [4] 0.016 | [5] -0.22 | [6] 0.007 | [7] 0.077 | [8] -0.1 | [9] -0.027 | [10] -0.018 | [11] -0.067 | [12] -0.071 | [13] 0.025 | [14] 0.036 | [15] 0.007 | [16] -0.014 | [17] 0.053 | [18] -0.053 | [19] 0.07 | [20] -0.019

USP5 (UniProt P45974)
inactive: [1] -0.011 | [2] -0.015 | [3] 0.037 | [4] -0.058 | [5] -0.043 | [6] 0.13 | [7] 0.027 | [8] 0.049 | [9] 0.101 | [10] 0.035 | [11] 0.042 | [12] 0.035 | [13] 0.012 | [14] -0.118 | [15] 0.034 | [16] -0.021 | [17] 0.034 | [18] 0.013 | [19] -0.035 | [20] 0.081

UBXN1 (UniProt Q04323)
inactive: [1] -0.04 | [2] -0.023 | [3] 0.019 | [4] 0.022 | [5] 0.037 | [6] 0.041 | [7] -0.008 | [8] 0 | [9] -0.053 | [10] -0.057 | [11] 0.016 | [12] 0.055 | [13] 0.029 | [14] -0.034 | [15] 0.031 | [16] -0.013 | [17] 0.022 | [18] 0.026 | [19] -0.002 | [20] 0.041

USP19 isoform 6 (UniProt O94966)
inactive: [1] -0.015 | [2] 0.016 | [3] 0.016 | [4] -0.038 | [5] -0.044 | [6] 0.058 | [7] -0.008 | [8] -0.027 | [9] -0.026 | [10] -0.025 | [11] -0.005 | [12] 0.045 | [13] 0.016 | [14] -0.033 | [15] 0.012 | [16] -0.124 | [17] 0.019 | [18] 0.042 | [19] 0.012 | [20] 0.034

USP8 (UniProt P40818)
inactive: [1] -0.028 | [2] -0.174 | [3] 0.043 | [4] 0.016 | [5] -0.013 | [6] -0.019 | [7] -0.059 | [8] -0.16 | [9] 0.08 | [10] 0.039 | [11] 0.077 | [12] -0.2 | [13] -0.08 | [14] 0.15 | [15] 0.004 | [16] -0.04 | [17] -0.02 | [18] 0.107 | [19] 0.094 | [20] -0.111

USP47 (UniProt Q96K76)
inactive: [1] 0.056 | [2] 0.087 | [3] 0.061 | [4] 0.03 | [5] -0.148 | [6] -0.019 | [7] 0.007 | [8] -0.159 | [9] 0.08 | [10] -0.007 | [11] 0.01 | [12] -0.09 | [13] -0.037 | [14] 0.165 | [15] -0.056 | [16] -0.022 | [17] 0.089 | [18] 0.121 | [19] 0.137 | [20] -0.081

UPF1 (UniProt Q92900)
inactive: [1] 0 | [2] 0.015 | [3] 0.01 | [4] -0.016 | [5] -0.07 | [6] 0.099 | [7] -0.014 | [8] -0.045 | [9] -0.049 | [10] -0.024 | [11] -0.034 | [12] 0.046 | [13] -0.03 | [14] -0.001 | [15] 0.015 | [16] 0.006 | [17] 0.012 | [18] 0.022 | [19] -0.023 | [20] 0.021

VAT1 (UniProt Q99536)
inactive: [1] 0.031 | [2] -0.037 | [3] 0.023 | [4] -0.003 | [5] -0.037 | [6] 0.016 | [7] 0.019 | [8] 0.078 | [9] 0.046 | [10] -0.064 | [11] 0.023 | [12] 0.05 | [13] 0.019 | [14] -0.067 | [15] 0.002 | [16] -0.009 | [17] -0.013 | [18] 0.008 | [19] -0.062 | [20] 0.15

VAPA isoform 2 (UniProt Q9P0L0)
inactive: [1] 0.006 | [2] -0.019 | [3] -0.036 | [4] -0.019 | [5] -0.034 | [6] 0 | [7] 0.046 | [8] 0.021 | [9] 0.006 | [10] -0.043 | [11] 0.027 | [12] 0.037 | [13] -0.062 | [14] -0.014 | [15] -0.012 | [16] -0.03 | [17] 0.01 | [18] -0.024 | [19] -0.021 | [20] 0.046

VARS (UniProt P26640)
inactive: [1] 0.008 | [2] 0.024 | [3] 0.035 | [4] -0.033 | [5] -0.072 | [6] 0.05 | [7] -0.004 | [8] -0.059 | [9] 0.004 | [10] 0.032 | [11] 0.015 | [12] -0.018 | [13] -0.007 | [14] 0.053 | [15] -0.002 | [16] -0.049 | [17] 0.02 | [18] 0.059 | [19] -0.003 | [20] -0.005

VANGL1 (UniProt Q8TAA9)
inactive: [1] -0.005 | [2] 0.147 | [3] -0.048 | [4] -0.1 | [5] -0.018 | [6] -0.036 | [7] -0.063 | [8] 0.054 | [9] -0.048 | [10] 0.097 | [11] 0.09 | [12] -0.01 | [13] -0.084 | [14] -0.026 | [15] -0.028 | [16] -0.011 | [17] -0.035 | [18] 0.005 | [19] 0.043 | [20] 0.078

UNC45A (UniProt Q9H3U1)
inactive: [1] 0.038 | [2] 0.069 | [3] 0.042 | [4] -0.024 | [5] -0.133 | [6] 0.041 | [7] 0.003 | [8] -0.197 | [9] -0.009 | [10] -0.006 | [11] -0.009 | [12] -0.104 | [13] -0.004 | [14] 0.149 | [15] -0.014 | [16] -0.068 | [17] 0.089 | [18] 0.16 | [19] 0.131 | [20] -0.1
